Experimental data as given in PubChem BioAssay AID1671190 (National Center for Advancing Translational Sciences (NCATS), 2021).
Screen size: about 580,000 compounds; about 6,100 (1.1%) were called active. Inconclusive results, whose numbers are uncertain, are shown with a selection of clear calls. Calls come from the whole dose curve; as a rule, active = well fitted inhibition curve with a large enough effect; inconclusive = small, poorly fitted or top-dose-only effect, or another doubt; inactive = no such curve, though single readings can be large or run the other way. Potencies beside an inconclusive call are fits to weak or partial responses and may not hold up.

By UniProt entry, the sequences of proteins in these tests, tags left out. Where a name states a change or a piece, a line headed by the entry shows the natural chain unless it says otherwise.
UniProt P18054: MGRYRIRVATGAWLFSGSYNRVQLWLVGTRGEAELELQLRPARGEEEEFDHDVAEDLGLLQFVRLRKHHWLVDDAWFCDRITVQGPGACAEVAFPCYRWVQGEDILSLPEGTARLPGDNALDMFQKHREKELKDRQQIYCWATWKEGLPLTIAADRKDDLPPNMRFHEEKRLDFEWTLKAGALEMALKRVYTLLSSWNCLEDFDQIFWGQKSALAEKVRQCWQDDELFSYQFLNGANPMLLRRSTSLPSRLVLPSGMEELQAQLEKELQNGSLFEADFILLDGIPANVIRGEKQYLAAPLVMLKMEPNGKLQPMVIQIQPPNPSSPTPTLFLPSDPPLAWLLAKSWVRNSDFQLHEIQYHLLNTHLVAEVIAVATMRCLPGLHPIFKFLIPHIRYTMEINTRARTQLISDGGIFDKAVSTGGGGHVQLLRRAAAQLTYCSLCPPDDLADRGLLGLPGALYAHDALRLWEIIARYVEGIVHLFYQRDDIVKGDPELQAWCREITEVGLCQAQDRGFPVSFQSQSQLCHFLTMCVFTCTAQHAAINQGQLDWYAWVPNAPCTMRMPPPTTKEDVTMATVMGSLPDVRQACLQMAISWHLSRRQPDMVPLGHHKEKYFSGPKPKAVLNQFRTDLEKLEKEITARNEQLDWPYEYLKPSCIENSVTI

molecular target: Polyunsaturated fatty acid lipoxygenase ALOX12 (Homo sapiens) (UniProt P18054); experiment: Primary qHTS assay for inhibitors of human arachidonate 12S-lipoxygenase (ALOX12): Round 2; details: purified 12hLO, xylenol orange hydroperoxide absorbance; activity change, negative = inhibition: at 108 µM (top of the series) unless noted
How it was run: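 Purified human 12hLO at 150 nM in 25 mM Hepes, 0.01% Triton X-100, pH 7.0, preincubated 15 min at room temperature with compound. Reaction started with 40 uM arachidonic acid, 30 min at room temperature. Hydroperoxide measured by Fe-xylenol orange, 573/405 nm absorbance ratio.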
% is set by controls: 0 for no effect and ±100 for the full control effect; potency is the fitted concentration of half-maximal effect.

Row | Structure (SMILES) | Potency | activity change, negative = inhibition
1 | Cc1ccc(NC(=O)Cn2cc(S(=O)(=O)N3CCCC3)c(S(=O)(=O)N3CCCC3)c2)cc1F | inconclusive: 100 µM [inhibitor, single point] | 
2 | COc1cccc(NC(=O)CN(C)CC(=O)Nc2ccccc2-c2ccccc2)c1 | inconclusive: 1.78 µM [inhibitor, full curve, poor fit] | 
3 | CC(O)(c1cccc(F)c1)c1nc(-c2cccc(C(F)(F)F)c2)cs1 (stereo unspecified) | inconclusive: 79.4 µM [inhibitor, partial curve, poor fit] | 
4 | CCCCCCCCCCCCCCC(O)C[N+](C)(CCO)CCO (stereo unspecified) | inconclusive: 44.7 µM [inhibitor, partial curve, poor fit] | 
5 | c1ccc(Cn2cnnc2CC2CCCNC2)cc1 (stereo unspecified) | inconclusive: 6.31 µM [inhibitor, partial curve, poor fit] | 
6 | O=C(NCCNCc1cccc(Cl)c1)c1ccco1 | inconclusive: 4.47 µM [inhibitor, partial curve, poor fit] | 
7 | CCNC(=O)[C@@H]1C[C@H](N)CN1C(=O)c1ccc(NC(C)=O)cc1C |  | inactive: 29%
8 | Cc1ccc(C(=O)N/C(=C\c2cn(S(=O)(=O)N(C)C)c3ccccc23)C(=O)NCCN2CCOCC2)cc1 | inconclusive: 79.4 µM [inhibitor, partial curve, poor fit] | 
9 | O=C(c1ccc(O)c(Br)c1)c1cc(Br)ccc1O | inconclusive: 63.1 µM [inhibitor, partial curve, poor fit] | 
10 | COCCC(=O)N1CCC(Oc2ccc(C(=O)NCc3cc(C)n(C)n3)cc2)CC1 |  | inactive: 3.96%
11 | c1ccc2c(c1)CCN2CC1CCNCC1 | inconclusive: 44.7 µM [inhibitor, partial curve, poor fit] | 
12 | COCCn1c(COC)nc2ccccc21 |  | inactive: 0%
13 | CC(C)c1cc(C(=O)NC2CCN(c3ncccc3C#N)CC2)n(C)n1 |  | inactive: 41.3%
14 | COc1ccc(C)cc1C(C)NC(=O)c1cc(=O)[nH]c2ccccc12 (stereo unspecified) | inconclusive: 89.1 µM [inhibitor, single point] | 
15 | COc1ccc(-c2nc(C(C)C)nc3c2CN(C(=O)c2ccc4c(c2)OCO4)CC3)cc1 | inconclusive: 28.2 µM [inhibitor, partial curve] | 
16 | O=C(/C=C/C=C/c1ccco1)c1ccc(N2CCOCC2)cc1 | active: 5.01 µM | 
17 | Clc1ccccc1N/N=C/c1ccc2c(c1)OCO2 | active: 35.5 µM | 
18 | COc1ccc(-n2c(Cc3cccn3C)nnc2SCC(=O)NCC2CCCO2)cc1 (stereo unspecified) | inconclusive: 3.55 µM [inhibitor, full curve, poor fit] | 
19 | COC(=O)c1cc2oc(C)cc2n1CC(=O)N1CCCc2ccccc21 | inconclusive: 39.8 µM [inhibitor, partial curve, poor fit] | 
20 | Cc1cc(=O)[nH]c(SCc2ccccc2)n1 | inconclusive: 141 µM [inhibitor, single point] | 
21 | Cc1cc(C(=O)N/N=C/c2c(CO)cnc(C)c2O)c2ccccc2n1 |  | inactive: 0.75%

Reprinted, entries 6 to 7
Row | Structure (SMILES) | Potency | activity change, negative = inhibition
6 | O=C(NCCNCc1cccc(Cl)c1)c1ccco1 | inconclusive: 4.47 µM [inhibitor, partial curve, poor fit] | 
7 | CCNC(=O)[C@@H]1C[C@H](N)CN1C(=O)c1ccc(NC(C)=O)cc1C |  | inactive: 29%

Continuation.

Row | Structure (SMILES) | Potency | activity change, negative = inhibition
22 | Cc1[nH]c2ccc(F)cc2c1CC(=O)NCC(c1ccccc1)N1CCCC1 (stereo unspecified) |  | inactive: 2.16%
23 | CCSc1oc(-c2ccco2)nc1S(=O)(=O)c1ccc(Br)cc1 | inconclusive: 50.1 µM [inhibitor, partial curve, poor fit] | 
24 | CC(=O)N1N=C(c2ccc(Br)cc2)OC12CCCC2 | inconclusive: 112 µM [inhibitor, single point] | 
25 | CCC(C(=O)Nc1ccc(S(=O)(=O)N2CCN(C)CC2)cc1)c1ccccc1 (stereo unspecified) | inconclusive: 44.7 µM [inhibitor, partial curve, poor fit] | 
26 | CCCN1CCC(NC(=S)Nc2ccc([N+](=O)[O-])cc2)CC1 | inconclusive: 6.31 µM [inhibitor, full curve, poor fit] | 
27 | Oc1cc(-c2cccc(Cl)c2)cc2c1OCCN(c1cc(C3CC3)ncn1)C2 | inconclusive: 44.7 µM [inhibitor, partial curve, poor fit] | 
28 | Cc1ccc(NC(=O)NC(=O)CN(C)c2ccccc2)c(C)c1 | inconclusive: 56.2 µM [inhibitor, partial curve, poor fit] | 
29 | CCN(CC)S(=O)(=O)c1ccc(C)c(NC(=O)COc2ccc3c(C)cc(=O)oc3c2)c1 |  | inactive: -4.22%
30 | COc1cc2nc(CN3CCN(S(=O)(=O)c4c(F)cccc4F)CC3)[nH]c(=O)c2cc1OC | inconclusive: 28.2 µM [inhibitor, single point] | 
31 | O=C(O)c1csc(N/N=C/c2ccc(Br)cc2)n1 | active: 35.5 µM | 
32 | Cc1nnc(SCC(=O)N(C)c2ccccc2)n1-n1cccc1 | inconclusive: 39.8 µM [inhibitor, partial curve, poor fit] | 
33 | COc1ccc(N2CCN(c3nc(=S)n(-c4ccccc4)c(C)c3C(C)=O)CC2)cc1 | active: 39.8 µM | 
34 | Cc1cc2c(SCc3ccccc3Cl)nc(N)nc2nc1C | inconclusive: 22.4 µM [inhibitor, partial curve, poor fit] | 
35 | CCC(=O)Nc1ccc(S(=O)(=O)Nc2nccs2)cc1 |  | inactive: 3.47%
36 | C=CCSC1=N/C(=C\C=C\c2ccc(OC)cc2)C(=O)S1 | inconclusive: 35.5 µM [inhibitor, partial curve, poor fit] | 
37 | CCN1CCN(c2ccc(NC(=O)c3ccc4c(c3)[nH]c(=O)n4Cc3ccc(OC)cc3)cc2)CC1 | inconclusive: 50.1 µM [inhibitor, partial curve, poor fit] | 
38 | O=C(NCc1ccc2c(c1)OCO2)c1cc2cc(Cl)ccc2[nH]1 | inconclusive: 100 µM [inhibitor, partial curve, poor fit] | 
39 | O=C1Nc2ccc(-c3ccc(Cl)cc3)cc2C(=O)N2CCN(C(=O)c3cccc(F)c3)C[C@H]12 | inconclusive: 20 µM [inhibitor, partial curve, poor fit] | 
40 | O=C(Nc1cccc(F)c1)Nc1ccccn1 | inconclusive: 141 µM [inhibitor, partial curve, poor fit] | 
41 | CC(=O)OCC1OC(n2c(S)c(C#N)c(-c3ccccc3)c(C#N)c2=O)C(OC(C)=O)C(OC(C)=O)C1OC(C)=O (stereo unspecified) | inconclusive: 39.8 µM [inhibitor, partial curve, poor fit] | 
